Results are given in words; binding and its absence hold for the method and conditions named. In cells and extracts the contact can be indirect. Some entries that bind do so weakly or less than the wild type.
What was measured:
[1] = target: MYC-tagged SMURF2(FF), Y314F/Y434F (UniProt Q9HAU4); test: co-IP; 293T cells transfected with MYC-tagged SMURF2 or mutants and Flag-tagged SMAD7 and/or Flag-tagged c-SRC; lysed after 48 h in ELB (250 mM NaCl, 0.5% NP-40, 50 mM HEPES pH 7.3); immunoprecipitated with anti-MYC (affinity resin); immunoblot
[2] = target: MYC-tagged SMURF2, wild type (UniProt Q9HAU4); test: as above

By UniProt entry, the sequences of proteins in these tests, tags left out. Where a name states a change or a piece, a line headed by the entry shows the natural chain unless it says otherwise.
UniProt Q9HAU4: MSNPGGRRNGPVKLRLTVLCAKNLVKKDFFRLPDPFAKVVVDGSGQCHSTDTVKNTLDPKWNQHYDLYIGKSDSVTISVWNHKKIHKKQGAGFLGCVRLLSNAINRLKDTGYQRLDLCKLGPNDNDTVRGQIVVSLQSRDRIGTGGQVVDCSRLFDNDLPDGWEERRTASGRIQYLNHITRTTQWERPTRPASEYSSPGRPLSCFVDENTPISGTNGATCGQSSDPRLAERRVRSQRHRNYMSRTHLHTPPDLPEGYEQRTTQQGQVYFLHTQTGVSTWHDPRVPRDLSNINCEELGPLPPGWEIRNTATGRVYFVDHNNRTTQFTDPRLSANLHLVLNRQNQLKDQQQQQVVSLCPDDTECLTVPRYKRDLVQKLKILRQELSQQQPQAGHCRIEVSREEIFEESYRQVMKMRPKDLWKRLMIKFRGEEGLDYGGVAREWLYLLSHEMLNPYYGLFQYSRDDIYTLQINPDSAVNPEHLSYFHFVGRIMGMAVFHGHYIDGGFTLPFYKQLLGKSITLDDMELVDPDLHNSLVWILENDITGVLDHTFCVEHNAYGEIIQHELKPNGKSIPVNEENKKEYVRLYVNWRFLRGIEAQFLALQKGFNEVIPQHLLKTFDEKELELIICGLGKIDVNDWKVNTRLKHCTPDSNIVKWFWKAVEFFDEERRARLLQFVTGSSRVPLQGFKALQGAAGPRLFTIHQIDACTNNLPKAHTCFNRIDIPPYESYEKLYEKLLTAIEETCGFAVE
UniProt O15105: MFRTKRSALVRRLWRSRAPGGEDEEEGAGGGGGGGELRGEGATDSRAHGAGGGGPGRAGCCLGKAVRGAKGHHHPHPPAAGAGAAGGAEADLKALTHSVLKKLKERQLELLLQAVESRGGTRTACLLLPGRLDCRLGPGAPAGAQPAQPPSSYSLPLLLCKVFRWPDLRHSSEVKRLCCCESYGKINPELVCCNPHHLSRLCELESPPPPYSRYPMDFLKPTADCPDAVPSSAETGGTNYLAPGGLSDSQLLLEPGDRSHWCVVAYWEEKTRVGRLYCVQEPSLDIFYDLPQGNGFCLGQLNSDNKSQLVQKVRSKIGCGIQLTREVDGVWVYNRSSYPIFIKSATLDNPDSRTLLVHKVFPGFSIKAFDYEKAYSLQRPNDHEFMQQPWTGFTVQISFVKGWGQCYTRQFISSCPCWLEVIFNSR

- binding [1]: binds
- binding [2]: binds
Substance: FLAG-tagged SMAD7 (from UniProt O15105 1-426)

Source: publication PMC6761206
